Reference: patent US20100323346A1
No constants are given. Whether binding was seen depends on the method and setting. In cells and extracts the contact can be indirect. Some results given as binding are weak or reduced against the parent protein; the word gives no strength. Tags and fused reporters may be left off the sequences shown.

Amino acid sequences for entries named in this document (tags omitted). A change or cut given only in a name is not applied to a line headed by its entry.
UniProt P48357: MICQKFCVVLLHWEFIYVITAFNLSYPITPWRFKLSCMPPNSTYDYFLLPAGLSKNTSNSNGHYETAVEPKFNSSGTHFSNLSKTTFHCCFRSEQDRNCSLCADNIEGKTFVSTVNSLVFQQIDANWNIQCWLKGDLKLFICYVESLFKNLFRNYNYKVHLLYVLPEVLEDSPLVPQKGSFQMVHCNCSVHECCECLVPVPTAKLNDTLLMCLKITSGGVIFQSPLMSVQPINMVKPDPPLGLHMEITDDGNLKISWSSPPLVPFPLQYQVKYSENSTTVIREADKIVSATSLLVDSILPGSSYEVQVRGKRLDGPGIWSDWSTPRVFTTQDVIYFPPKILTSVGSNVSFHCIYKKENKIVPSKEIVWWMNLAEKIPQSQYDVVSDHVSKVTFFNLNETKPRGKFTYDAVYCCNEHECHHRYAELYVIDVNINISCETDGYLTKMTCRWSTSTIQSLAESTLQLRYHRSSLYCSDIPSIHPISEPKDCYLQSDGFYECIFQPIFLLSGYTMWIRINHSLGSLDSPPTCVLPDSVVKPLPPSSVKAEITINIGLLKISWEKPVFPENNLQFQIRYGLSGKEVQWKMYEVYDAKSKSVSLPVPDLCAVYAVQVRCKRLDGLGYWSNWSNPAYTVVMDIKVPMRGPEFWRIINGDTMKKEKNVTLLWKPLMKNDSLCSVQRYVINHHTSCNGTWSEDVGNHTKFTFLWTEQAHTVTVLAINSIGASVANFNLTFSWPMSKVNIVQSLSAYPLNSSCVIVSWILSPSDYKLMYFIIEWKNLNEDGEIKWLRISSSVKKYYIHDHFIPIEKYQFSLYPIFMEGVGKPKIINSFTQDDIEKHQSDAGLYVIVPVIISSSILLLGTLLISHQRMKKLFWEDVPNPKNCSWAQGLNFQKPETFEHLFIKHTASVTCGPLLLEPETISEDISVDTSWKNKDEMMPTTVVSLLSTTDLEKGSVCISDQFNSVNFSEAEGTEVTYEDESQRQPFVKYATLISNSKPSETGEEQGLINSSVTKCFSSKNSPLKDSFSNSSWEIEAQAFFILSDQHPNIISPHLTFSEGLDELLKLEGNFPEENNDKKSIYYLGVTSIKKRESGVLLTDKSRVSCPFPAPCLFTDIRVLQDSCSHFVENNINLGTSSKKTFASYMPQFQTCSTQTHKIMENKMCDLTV

Biological target: LRID-Myc (intracellular domain of the leptin receptor fused to a tag) (human) (UniProt P48357)
Test: co-immunoprecipitation from transfected COS7 cells (IP anti-FLAG agarose, Western blot anti-Myc)

B1: galectin-2-FLAG (ligand, not shown: small tags and cut ends)
chain: MTGELEVKNMDMKPGSTLKITGSIADGTDGFVINLGQGTDKLNLHFNPRFSESTIVCNSLDGSNWGQEQREDHLCFSPGSEVKFTVTFESDKFKVKLPDGHELTFPNRLGHSHLSYLSVRGGFNMSSFKLKE
  binding: binds
